In article PMC10503807:
No constants are given. Whether binding was seen depends on the method and setting. In cells and extracts the contact can be indirect. Here binding means that the protein was enriched with, or labelled near, the bait; the list need not be complete. Blank lines part the entries; values can stand above or below the molecule they belong to.

By UniProt entry, the sequences of proteins in these tests, tags left out. Residues count along the entry.
UniProt Q91WP6, residues 21-418: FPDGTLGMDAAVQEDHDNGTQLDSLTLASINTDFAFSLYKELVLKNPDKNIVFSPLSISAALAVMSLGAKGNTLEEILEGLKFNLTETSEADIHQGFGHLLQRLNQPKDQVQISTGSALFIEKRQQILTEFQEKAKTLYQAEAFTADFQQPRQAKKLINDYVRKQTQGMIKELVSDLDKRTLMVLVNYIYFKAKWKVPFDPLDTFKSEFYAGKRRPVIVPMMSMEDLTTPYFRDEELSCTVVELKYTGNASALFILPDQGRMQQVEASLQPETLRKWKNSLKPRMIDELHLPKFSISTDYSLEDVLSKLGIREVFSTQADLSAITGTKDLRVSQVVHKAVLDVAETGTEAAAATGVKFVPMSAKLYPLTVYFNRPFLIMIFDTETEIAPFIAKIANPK

Target: T1, Praja1 (PJA1), mouse (mouse (endogenous in hippocampus)) (UniProt O55176)
T1 sequence: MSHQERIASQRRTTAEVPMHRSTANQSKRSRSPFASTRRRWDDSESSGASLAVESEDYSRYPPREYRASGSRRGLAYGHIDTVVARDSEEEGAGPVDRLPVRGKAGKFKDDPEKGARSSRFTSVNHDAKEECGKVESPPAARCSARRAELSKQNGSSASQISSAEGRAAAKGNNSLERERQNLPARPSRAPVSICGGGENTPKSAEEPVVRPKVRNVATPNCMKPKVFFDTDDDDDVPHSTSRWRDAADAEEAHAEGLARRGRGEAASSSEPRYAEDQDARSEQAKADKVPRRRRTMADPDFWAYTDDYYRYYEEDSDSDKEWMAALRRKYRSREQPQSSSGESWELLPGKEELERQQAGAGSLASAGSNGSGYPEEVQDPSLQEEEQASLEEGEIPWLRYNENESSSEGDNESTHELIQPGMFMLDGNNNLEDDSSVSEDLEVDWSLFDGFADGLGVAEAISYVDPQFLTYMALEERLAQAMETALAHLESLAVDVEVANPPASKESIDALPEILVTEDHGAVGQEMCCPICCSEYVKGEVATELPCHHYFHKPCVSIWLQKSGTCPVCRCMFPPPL
Assay: affinity purification with mass spectrometry; IP from hippocampal lysate (NP-40 lysis buffer) with an anti-PJA1 antibody, protein A/G magnetic agarose beads, LC-MS/MS of the bound proteins

- binding: binds
Molecule: Serine peptidase inhibitor clade A member 3N (Serpina3n) (from UniProt Q91WP6 21-418)

- binding: binds
B1: GFM2 (ribosome-releasing factor 2, mitochondrial) (protein, UniProt Q8R2Q4 1-779)
chain: MFTKWRIFAVNHQRTFSVHLNTMCYCKIKANLKRLKTQLPLTRNYSSAPGIAGSDVKSLHSVINPPVAKIRNIGIMAHIDAGKTTTTERILYYSGYTRSLGDVDDGDTVTDFMAQERERGITIQSAAVTLDWKGYRVNLIDTPGHVDFTLEVERCLRVLDGAVAVFDASAGVEAQTLTVWRQADKHKIPRICFLNKMDKTGASFNYAVESIREKLKAKPLILQLPIGEARTFQGVVDVVNKEKLLWNSNSDDGKDFERMPLSEASDRELLKETIEARNSLIEQVADLDDEFADLVLGEFSENFDLVPAEKLQAAVHRVTLAQAAVPVLCGSALKNKGVQPLLDAVTTYLPSPEEREDRFLQWYEGDLCALAFKVLHDKQRGPLVFLRIYSGTLTPQLAVHNINRNCTERMSRLLLPFADQHVEIPSLTAGNIALTVGLKQTATGDTIVSSKSSALAAARRAGRGEREHGKKREAESLLLAGVEVPEPVFFCTIEPPSVAKQPDLDHALERLQREDPSLKVKLDPDSGQTVLCGMGELHIEIIHDRIKREYGLETYLGPLQVAYRETILNSVRATDTLDRVLGDKRHLVSAELEVRPAEEPCAVAKIEYADCVGEDLLQASREAIESAVHSACLQGPLLGSPVQDVAMTLHSLMIHPGTSTTMVTACISRCMQKALKKADKQVLEPLMSLEVTVSREYLSPVLADLAQRRGNIQEIQTRQDNRVVLGFVPLAEIMGYSTVLRTLTSGSATFALELSTYQAMSPQDQSALLNQRSGLAHVL
